Consider six molecules from patent US7655374B2, “Fixing liquid, toner fixing method and apparatus, and image forming method and apparatus” (Ricoh Company, Ltd., priority 2005, dated 2010).

The data set in a line: odor intensity index from a triangle odor bag method (sensory measurement). As to conditions: single component of the fixing liquid; 10×log(dilute strength at which the odor cannot be sensed).
`CCCCCCCCCCCC(=O)OCC` [ethyl laurate]: the odor intensity index worked out at 13.

For the molecule `CCCCCCCCCCCC` [n-dodecane], the odor intensity index amounted to 0.

In turn, `CCCCCCCCCCC` [n-undecane] displayed an odor intensity index of 0.

In turn, diethoxyethyl sebacate returned an odor intensity index of 1.

In the case of `CCCCOC(=O)CCCCCCCCC(=O)OCCCC` [dibutyl sebacate], the odor intensity index was 13.

Consider `CC(C)COC(=O)CCCCC(=O)OCC(C)C` [diisobutyl adipate], for which the odor intensity index was found to be 13.
